This is one part of the list. The data scatter; read single values as rough.

Protein sequences, listed by entry. Tags and fused reporters are not part of them. Lines headed by an entry give the natural chain unless they say otherwise; changes in a name come on top. Residues count along the entry.
UniProt Q9P1Y6: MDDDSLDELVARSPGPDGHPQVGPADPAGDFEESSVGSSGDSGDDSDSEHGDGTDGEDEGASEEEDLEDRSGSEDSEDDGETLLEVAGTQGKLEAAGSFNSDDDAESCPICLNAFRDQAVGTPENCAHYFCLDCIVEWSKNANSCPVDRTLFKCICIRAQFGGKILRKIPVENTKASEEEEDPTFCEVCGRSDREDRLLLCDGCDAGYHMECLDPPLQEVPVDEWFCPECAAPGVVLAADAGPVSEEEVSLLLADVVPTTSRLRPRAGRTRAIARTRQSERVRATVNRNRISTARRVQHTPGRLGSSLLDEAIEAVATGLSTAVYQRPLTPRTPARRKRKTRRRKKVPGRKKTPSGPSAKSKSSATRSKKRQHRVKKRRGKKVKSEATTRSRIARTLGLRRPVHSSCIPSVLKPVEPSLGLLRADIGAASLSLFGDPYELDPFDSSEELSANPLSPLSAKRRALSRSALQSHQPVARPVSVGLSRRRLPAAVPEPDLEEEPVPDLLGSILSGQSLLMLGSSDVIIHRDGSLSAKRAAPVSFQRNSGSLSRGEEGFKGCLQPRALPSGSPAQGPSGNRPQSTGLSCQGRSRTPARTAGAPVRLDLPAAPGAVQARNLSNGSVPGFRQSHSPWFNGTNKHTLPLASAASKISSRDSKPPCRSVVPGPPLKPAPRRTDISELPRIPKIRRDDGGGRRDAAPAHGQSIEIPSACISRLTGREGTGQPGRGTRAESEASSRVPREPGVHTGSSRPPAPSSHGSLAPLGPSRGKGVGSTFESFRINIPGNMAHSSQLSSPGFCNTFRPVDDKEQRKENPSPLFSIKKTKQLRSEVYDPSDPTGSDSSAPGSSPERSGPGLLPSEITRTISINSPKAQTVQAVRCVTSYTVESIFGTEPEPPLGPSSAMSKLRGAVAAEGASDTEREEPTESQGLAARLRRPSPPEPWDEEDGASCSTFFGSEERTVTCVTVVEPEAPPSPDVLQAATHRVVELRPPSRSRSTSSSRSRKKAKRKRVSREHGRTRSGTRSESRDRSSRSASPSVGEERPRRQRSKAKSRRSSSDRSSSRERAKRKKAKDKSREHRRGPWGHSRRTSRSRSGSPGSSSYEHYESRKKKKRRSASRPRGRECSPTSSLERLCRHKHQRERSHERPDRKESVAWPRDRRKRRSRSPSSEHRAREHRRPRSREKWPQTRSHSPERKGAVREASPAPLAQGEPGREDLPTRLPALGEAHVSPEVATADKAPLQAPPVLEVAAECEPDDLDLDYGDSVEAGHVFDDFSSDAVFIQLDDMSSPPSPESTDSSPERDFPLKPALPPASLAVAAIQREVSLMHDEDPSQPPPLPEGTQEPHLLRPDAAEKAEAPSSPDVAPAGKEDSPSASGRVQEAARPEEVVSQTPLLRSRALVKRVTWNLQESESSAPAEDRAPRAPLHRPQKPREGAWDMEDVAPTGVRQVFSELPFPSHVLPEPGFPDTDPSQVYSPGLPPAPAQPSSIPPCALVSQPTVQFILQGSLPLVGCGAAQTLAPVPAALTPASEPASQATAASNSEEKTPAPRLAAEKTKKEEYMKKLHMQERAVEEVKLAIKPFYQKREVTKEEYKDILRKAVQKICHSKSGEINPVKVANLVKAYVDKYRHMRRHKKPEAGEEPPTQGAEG
UniProt Q92576, 1757-1778: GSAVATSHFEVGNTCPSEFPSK
UniProt P54278: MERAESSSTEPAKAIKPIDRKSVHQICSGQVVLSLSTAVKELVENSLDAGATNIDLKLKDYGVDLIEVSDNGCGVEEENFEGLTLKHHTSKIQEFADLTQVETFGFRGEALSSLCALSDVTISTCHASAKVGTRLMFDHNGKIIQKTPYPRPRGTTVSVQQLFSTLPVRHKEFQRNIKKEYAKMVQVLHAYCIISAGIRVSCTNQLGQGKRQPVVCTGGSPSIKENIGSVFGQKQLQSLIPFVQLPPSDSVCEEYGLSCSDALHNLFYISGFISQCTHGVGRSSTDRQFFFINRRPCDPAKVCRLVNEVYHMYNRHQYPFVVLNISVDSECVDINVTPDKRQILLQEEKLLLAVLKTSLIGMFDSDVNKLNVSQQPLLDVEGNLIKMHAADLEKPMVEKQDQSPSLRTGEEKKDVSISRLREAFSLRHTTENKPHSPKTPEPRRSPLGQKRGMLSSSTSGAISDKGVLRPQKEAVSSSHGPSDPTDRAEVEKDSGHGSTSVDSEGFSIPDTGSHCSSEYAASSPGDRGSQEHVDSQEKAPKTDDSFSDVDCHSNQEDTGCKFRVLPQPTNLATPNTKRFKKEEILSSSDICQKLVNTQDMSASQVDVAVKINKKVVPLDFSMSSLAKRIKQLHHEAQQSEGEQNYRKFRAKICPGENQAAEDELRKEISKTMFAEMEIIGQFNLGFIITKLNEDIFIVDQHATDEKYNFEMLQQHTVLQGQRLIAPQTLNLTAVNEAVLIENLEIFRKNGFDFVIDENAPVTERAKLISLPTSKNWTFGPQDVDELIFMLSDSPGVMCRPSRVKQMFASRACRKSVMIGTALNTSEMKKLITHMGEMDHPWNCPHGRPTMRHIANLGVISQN
UniProt Q8IYS1: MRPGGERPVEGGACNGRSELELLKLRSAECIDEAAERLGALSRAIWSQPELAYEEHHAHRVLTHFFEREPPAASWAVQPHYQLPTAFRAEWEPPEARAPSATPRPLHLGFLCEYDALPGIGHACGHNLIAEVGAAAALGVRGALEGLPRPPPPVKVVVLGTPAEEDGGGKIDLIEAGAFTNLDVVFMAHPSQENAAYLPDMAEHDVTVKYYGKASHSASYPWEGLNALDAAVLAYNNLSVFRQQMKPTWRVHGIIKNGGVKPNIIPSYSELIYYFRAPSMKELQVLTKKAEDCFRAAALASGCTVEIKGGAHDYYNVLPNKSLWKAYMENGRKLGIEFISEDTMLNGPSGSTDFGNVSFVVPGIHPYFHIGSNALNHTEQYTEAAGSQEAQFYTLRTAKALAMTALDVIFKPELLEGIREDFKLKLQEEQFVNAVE
UniProt P15735: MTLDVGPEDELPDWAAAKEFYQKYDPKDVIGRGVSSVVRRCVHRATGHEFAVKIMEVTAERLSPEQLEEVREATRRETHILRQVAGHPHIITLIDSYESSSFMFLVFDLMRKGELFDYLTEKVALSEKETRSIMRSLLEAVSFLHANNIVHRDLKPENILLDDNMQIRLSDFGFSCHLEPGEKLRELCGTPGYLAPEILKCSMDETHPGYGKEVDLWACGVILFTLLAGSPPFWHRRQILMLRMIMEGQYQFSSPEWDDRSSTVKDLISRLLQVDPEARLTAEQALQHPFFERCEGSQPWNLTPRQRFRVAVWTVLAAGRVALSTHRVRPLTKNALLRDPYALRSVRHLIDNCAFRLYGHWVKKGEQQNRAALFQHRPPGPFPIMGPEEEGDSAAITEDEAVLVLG
UniProt Q93100: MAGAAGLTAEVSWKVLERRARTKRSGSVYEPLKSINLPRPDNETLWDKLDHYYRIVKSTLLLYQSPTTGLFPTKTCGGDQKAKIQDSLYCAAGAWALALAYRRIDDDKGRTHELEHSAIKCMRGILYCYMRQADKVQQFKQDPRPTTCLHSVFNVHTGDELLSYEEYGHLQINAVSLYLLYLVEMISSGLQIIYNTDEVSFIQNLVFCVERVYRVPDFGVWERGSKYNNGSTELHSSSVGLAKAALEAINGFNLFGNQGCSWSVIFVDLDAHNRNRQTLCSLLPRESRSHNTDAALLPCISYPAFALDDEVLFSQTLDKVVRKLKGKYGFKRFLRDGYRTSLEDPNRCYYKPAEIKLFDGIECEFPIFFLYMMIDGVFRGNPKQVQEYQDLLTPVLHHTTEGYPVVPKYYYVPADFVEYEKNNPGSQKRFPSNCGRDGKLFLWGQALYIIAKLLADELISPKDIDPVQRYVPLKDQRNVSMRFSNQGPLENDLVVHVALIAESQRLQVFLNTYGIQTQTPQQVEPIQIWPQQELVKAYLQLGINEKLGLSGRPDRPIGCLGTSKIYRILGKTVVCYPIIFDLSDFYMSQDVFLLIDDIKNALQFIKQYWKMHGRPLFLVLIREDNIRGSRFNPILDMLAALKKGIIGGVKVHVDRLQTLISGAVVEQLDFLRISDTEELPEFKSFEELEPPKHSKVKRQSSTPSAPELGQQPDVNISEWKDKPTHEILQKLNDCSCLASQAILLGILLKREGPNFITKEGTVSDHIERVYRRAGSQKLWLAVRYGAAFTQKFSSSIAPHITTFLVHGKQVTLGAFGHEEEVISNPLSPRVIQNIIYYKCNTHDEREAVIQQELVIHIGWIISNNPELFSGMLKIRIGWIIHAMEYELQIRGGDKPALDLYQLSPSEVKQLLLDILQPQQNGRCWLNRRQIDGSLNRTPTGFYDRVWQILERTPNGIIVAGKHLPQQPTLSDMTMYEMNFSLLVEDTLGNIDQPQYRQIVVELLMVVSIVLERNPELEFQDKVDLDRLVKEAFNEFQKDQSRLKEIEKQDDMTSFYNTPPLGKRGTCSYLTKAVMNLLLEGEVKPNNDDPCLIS
UniProt Q92871: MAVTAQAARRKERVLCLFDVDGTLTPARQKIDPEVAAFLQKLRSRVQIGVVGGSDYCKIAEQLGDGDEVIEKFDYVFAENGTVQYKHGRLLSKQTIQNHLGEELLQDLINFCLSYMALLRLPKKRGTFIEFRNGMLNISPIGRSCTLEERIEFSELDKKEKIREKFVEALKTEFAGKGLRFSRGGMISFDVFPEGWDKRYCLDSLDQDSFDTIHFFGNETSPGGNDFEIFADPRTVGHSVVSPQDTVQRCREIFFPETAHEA
UniProt Q9H8W4, 140-160: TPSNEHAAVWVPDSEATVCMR
UniProt P37287, 333-353: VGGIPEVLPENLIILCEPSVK
UniProt O00443: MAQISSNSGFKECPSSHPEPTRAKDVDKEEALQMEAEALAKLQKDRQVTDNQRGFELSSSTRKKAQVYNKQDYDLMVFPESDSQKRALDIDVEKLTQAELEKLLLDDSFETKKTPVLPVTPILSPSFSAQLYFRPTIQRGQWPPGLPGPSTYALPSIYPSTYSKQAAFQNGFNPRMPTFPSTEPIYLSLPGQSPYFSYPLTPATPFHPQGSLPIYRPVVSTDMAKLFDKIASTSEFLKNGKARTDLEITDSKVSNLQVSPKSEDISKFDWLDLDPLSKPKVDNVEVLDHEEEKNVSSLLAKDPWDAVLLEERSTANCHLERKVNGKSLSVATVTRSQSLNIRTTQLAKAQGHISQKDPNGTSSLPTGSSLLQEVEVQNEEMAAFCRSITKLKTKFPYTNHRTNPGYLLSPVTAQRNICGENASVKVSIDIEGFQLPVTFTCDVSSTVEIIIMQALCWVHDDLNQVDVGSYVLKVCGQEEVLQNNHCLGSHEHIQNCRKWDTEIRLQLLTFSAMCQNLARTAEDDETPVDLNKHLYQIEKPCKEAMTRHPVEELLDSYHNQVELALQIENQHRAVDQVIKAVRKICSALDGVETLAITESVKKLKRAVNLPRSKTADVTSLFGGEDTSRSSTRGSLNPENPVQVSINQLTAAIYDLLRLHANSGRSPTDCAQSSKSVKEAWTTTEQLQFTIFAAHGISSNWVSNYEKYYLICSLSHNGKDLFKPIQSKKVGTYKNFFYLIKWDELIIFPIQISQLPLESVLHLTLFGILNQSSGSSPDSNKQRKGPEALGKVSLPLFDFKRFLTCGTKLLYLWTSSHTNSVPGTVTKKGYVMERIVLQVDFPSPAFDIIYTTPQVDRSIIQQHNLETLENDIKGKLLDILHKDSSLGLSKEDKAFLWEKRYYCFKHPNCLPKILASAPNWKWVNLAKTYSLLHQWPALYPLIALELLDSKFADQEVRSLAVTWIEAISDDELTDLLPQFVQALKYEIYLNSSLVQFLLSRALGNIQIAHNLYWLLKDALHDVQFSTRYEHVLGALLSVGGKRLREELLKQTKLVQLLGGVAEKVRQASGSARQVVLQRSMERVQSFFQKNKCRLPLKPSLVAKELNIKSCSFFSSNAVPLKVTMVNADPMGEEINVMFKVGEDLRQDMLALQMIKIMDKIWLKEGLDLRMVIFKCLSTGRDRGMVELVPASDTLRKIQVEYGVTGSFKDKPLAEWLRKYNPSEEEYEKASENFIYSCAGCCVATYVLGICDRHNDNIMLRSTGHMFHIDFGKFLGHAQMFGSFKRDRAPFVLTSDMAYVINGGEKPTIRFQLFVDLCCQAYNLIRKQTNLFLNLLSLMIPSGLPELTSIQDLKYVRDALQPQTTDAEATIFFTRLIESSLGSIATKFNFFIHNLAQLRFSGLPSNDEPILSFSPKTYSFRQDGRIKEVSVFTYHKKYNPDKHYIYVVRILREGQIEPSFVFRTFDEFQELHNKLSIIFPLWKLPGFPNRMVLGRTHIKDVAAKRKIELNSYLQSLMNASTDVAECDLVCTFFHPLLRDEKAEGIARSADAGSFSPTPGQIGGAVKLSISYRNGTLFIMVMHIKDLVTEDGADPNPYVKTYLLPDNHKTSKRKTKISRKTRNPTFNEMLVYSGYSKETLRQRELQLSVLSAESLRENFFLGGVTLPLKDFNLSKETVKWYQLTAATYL

Compound in this test: ClCC(=O)N[C@@H]1CCCc2ccccc12
Description: log2 mean competition ratio of IA-DTB cysteine labelling (DMSO/compound) (log2 ratio); higher = stronger cysteine engagement by compound. Conditions: 50 µM; treatment time: 4 h; cell line lysate: HEK293T. The protocol: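 IA-DTB competitive cysteine chemoproteomics in HEK293T RIPA lysate. Lysates were treated with compound 29 or 30 at 50 or 200 µM for 4 h, then IA-DTB (500 µM, 1 h), trypsin-digested, NeutrAvidin-enriched and analysed by diaPASEF. Competition ratio = intensity DMSO / intensity compound (n=4 treated, n=64 DMSO); binding: mean log2 CR ≥ 1 and p ≤ 0.05 plus QC filters. Target is the cysteine site.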
On to PMPCB C277 (UniProt O75439), for which the “log2 mean competition ratio” value is -0.0397. To PHRF1 C710 (UniProt Q9P1Y6) belongs -0.0336. On to PLIN2 C302 (UniProt Q99541), for which the “log2 mean competition ratio” value is -0.22.

For PIK3CD C366 (UniProt O00329), the “log2 mean competition ratio” value is -0.064. To PHF3 C186 (UniProt Q92576) belongs 0.151.

As for PMS2 C653 (UniProt P54278), the “log2 mean competition ratio” value was -0.0157. To PM20D2 C30 (UniProt Q8IYS1) belongs -0.113; to PLA2G4A C726 (UniProt P47712), 0.0735.

As for POLA1 C1458 (UniProt P09884), the “log2 mean competition ratio” value is 0.0153. Take PIGW C409 (UniProt Q7Z7B1): the “log2 mean competition ratio” value amounted to 0.12. Turning to PNMA3 C130, the “log2 mean competition ratio” value amounted to 0.284. Regarding POLR1A C733 (UniProt O95602), the “log2 mean competition ratio” value is -0.34. For the target PHKG2 C188 (UniProt P15735), the “log2 mean competition ratio” value is -0.0149. Turning to POLD1 C761 (UniProt P28340), the “log2 mean competition ratio” value was -0.138. To PHKB C348 (UniProt Q93100) belongs 0.299; to PMM1 C145 (UniProt Q92871), -0.0783; to POGZ C1267 (UniProt Q7Z3K3), 0.00818. To PLCH1 C1279 (UniProt Q4KWH8) belongs 0.0125; to PLEKHF2 C158 (UniProt Q9H8W4), -0.0499.

With PMS1 C243 (UniProt P54277), the “log2 mean competition ratio” value is -0.172. POLR1F C47: the “log2 mean competition ratio” value is -0.515. Consider PHKA1 C551 (UniProt P46020), for which the “log2 mean competition ratio” value is 0.0304. Take POLR1A C746 (UniProt O95602): the “log2 mean competition ratio” value is -0.392. As to PIK3R1 C498 (UniProt P27986), the “log2 mean competition ratio” value is 0.0401. The value for PIGA C348 (UniProt P37287) was 0.739. To PIK3C2A C669 (UniProt O00443) belongs -0.0375; to PHF3 C1771 (UniProt Q92576), -0.0786.

(Values after the supplement of paper PMC11732987, “Enantioselective OTUD7B fragment discovery through chemoproteomics screening and high-throughput optimisation” (Communications Chemistry, 2025).)
